Literature values as cited in patent US7323476B2, “Myriceric acid derivatives for the treatment of cancer, cardiovascular and inflammatory diseases” (SaviPu Pharmaceuticals, priority 2006, dated 2008).
For at least one compound, name, drawing or mass did not settle the structure.

Tested on: NF-κB
Settings: literature ref. (71)

COC(=O)[C@]1(C)CC[C@]2(C)CC[C@]3(C)C4=CC=C5C(=CC(=O)C(O)=C5C)[C@]4(C)CC[C@@]3(C)[C@@H]2C1 [Pristimerin]
inhibits NF-κB activation (concentration level): submicromolar levels
